System: mature female rats (eight months old)
Test: Bone formation-promoting effect in mature rats
Assay type: in vivo, rat
Settings: No. 1 oral 1, 10 or 100 mg/kg·day, alendronate 300 μg/kg subcutaneous, 20 weeks, vs control group
Description: Synthetic peptide No. 1 was administered to mature female rats (eight months old, ten rats in each group) by oral gavage using a gastric tube once a day for 20 weeks. The dose of the synthetic peptide was 1, 10 or 100 mg/kg·day. As a positive control, alendronate sodium hydrate (hereinafter called “alendronate”) (300 μg/kg) was subcutaneously administered once a day for 20 weeks.

NCCCC(O)(P(=O)(O)O)P(=O)(O)O [alendronate, alendronate sodium hydrate, reference compound]
bone density in the femurs: significantly increased

— US10538564B2, “Peptides having osteoblast growth-promoting activity and use thereof” (PHARMA FOODS INTERNATIONAL CO., LTD., priority 2014, dated 2020)
